According to the supplement of paper PMC3334620:
The full ranking holds about 33,000 sequences; the median of “E-score (-0.5 to 0.5)” is about -0.0014, and the highest 2% start at about 0.25. The list shows a part of the results.

Each sequence was assayed against T1, Cad1 (UniProt P24813) (assay: PBM E-score (8-mer binding enrichment) (E-score (-0.5 to 0.5)); higher = stronger / more preferred TF binding). Conditions: protein concentration: 100 nM; construct: GST-full length.
T1 sequence: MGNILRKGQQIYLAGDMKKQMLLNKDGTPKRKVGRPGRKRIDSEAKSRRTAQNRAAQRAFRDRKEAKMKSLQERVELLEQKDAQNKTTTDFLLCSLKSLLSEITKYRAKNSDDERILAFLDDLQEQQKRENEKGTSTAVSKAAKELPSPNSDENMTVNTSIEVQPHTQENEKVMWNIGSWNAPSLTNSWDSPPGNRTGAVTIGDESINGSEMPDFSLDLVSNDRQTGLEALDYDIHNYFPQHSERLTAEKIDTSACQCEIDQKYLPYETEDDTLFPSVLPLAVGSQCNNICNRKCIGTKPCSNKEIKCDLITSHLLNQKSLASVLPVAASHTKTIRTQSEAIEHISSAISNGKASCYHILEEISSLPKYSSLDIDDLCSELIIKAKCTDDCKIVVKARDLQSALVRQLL
Outline: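 Detection of bound protein used fluorescent anti-GST, with scans normalised by masliner. The proteins were GST-tagged yeast transcription factors applied at about 100-200 nM to universal all-10-mer Agilent arrays made double-stranded by primer extension. Each ungapped eight-base word, pooled with its reverse complement, was scored with an E-score from the Universal PBM Analysis Suite.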

Point of comparison: AGTGACAG, “PBM E-score” value 0.125. Against it:
- GAGACATA — lower, 0.039
- CGATCACA — higher, 0.204
- ACGATGAG — lower, 0.0487
- GTGTGCAA — lower, 0.0461
- TGCTAACA — lower, 0.043
- CGTTTCAA — lower, 0.0179
- ATTGGATA — lower, 0.0589
- GTAGACCA — lower, -0.176
- AATATCGT — higher, 0.272
- ACTGGGTA — lower, -0.105
- AAATTTCA — lower, 0.113
- ACCTGGCA — lower, -0.0272
- ATCTTATG — lower, 0.0315
- CGGGAGGA — lower, -0.0897
- AGGGCAGG — lower, -0.139
- AGAATACA — lower, 0.0745
- GATGGCGA — lower, 0.0628
- AATTGAGA — higher, 0.164
- CCGATTAC — lower, 0.0359
- GAGGCCAA — lower, 0.0162
- CAGGACAG — lower, 0.0794
- ATCAAATC — lower, 0.0979
- AAGAAACA — higher, 0.127
- TACCACTA — lower, -0.0282
- GGGCACCC — lower, -0.35
- ACCAGTAT — lower, 0.0915
- CTGGTGCC — lower, -0.168
- AAATAACT — higher, 0.237
- CATTAAGG — lower, -0.0137
- AGCTATGG — lower, -0.0808
- CGACACCG — lower, -0.0522
- ATACCATA — higher, 0.27
- ACGCCCGT — lower, 0.0733
- CGTTGAGC — lower, 0.082
- TGGACGAA — lower, 0.0609
- CCCTGGTA — lower, -0.171
- GTCGACGA — higher, 0.15
- ACGGCGAA — higher, 0.145
- ATCTGTAC — lower, 0.0684
- CATGAAAC — lower, 0.103
- TACGTCCA — lower, -0.0217
- GGAGTGGA — lower, -0.0778
- GAAAGGCA — lower, -0.0708
- CAACCTAA — lower, 0.0817
- AACGAGCG — higher, 0.167
- AAGTCGCG — lower, 0.0917
- ATTCTGCG — lower, 0.0803
- AATCTGGC — lower, -0.102
- GATGCTCA — lower, -0.111
- TCGGTTCA — lower, -0.0954
- CACCTATC — lower, 0.0313
- CTACCGGA — lower, -0.155
- GGACAGTA — higher, 0.146
- CACCTGAA — lower, 0.103
- CTGCTTTA — higher, 0.161
- ACAGTAAT — higher, 0.217
- TAAAATAA — higher, 0.164
- CGGACTTC — lower, -0.171
- GCTCGACC — lower, -0.0593
- ACAGCCCC — lower, -0.121
- ATGATAGA — lower, 0.0739
- CCTACAAG — lower, -0.227
- GAGAGATA — lower, 0.039
- CGACTCTA — lower, -0.142
- CCCTGACC — lower, -0.0493
- CACCACAG — lower, 0.0919
- ACCAAACA — higher, 0.13
- ACGCGATG — lower, 0.051
- CCAGAAGA — lower, -0.206
- CCTTTCAA — lower, -0.105
- GCGCAGAC — lower, 0.104
- AAGGCTTC — lower, -0.147
- CTCCCGAC — lower, -0.183
- CGGTTCAG — lower, -0.104
- GGGTGAGA — lower, -0.248
- CAGAAATG — lower, 0.0237
- CTAGCGTC — lower, -0.126
- ACTGTATA — lower, 0.122
- ATGAACGG — lower, -0.0252
- AGTGATCG — lower, 0.0171
- CAAAGAAC — lower, 0.0597
- ACCTCAAC — lower, 0.055
- CCATCAGA — lower, -0.114
- GTATAGAA — lower, 0.0196
- CTGACGTA — lower, 0.0659
- CTCGGTGA — lower, -0.057
- AGGATCAC — lower, 0.00581
- CCCTCAAG — lower, -0.238
- ATCACCTG — lower, -0.141
- GACCCAAA — lower, -0.0187
- CGCCACCC — lower, -0.116
- GGCAAGAC — lower, -0.0601
- TAAGTGAA — lower, 0.0211
- ATGCACTA — lower, -0.0535
- GTTATTCA — higher, 0.251
- CAAAATAC — lower, 0.115
- CCAATTGA — lower, 0.0388
- GCCCTCCC — lower, -0.19
- AGCGATAT — higher, 0.186
- AACCCATC — lower, -0.0566
- CCCGTAAG — lower, -0.11
- ACCATTTC — higher, 0.136
- GTAGTGTA — lower, 0.00401
- CCTCTTTA — lower, -0.0933
- ATGGACAT — lower, 0.095
- ATTATTGG — higher, 0.137
- GCTAAAGC — lower, -0.0728
- CCTAGATC — lower, -0.142
- GCGAGCCA — lower, -0.0639
- CAGATCGG — lower, -0.0566
- CGTACAGC — lower, -0.105
- ACTCTGCA — lower, 0.0197
- CTACAAAG — lower, 0.014
- CATGTCCA — lower, -0.0586
- CTACCCAA — lower, 0.116
- GTCGCGCA — lower, 0.069
- CATTCAGC — lower, 0.025
- AAGGGCAA — lower, 0.0155
- ATACCCCG — lower, -0.024
- GATCAGAA — lower, -0.00776
- ACAGCGTA — lower, -0.0185
- GAAGGACA — lower, 0.0876
- ACTCTACG — lower, -0.153
- AGTTTCTC — lower, -0.0704
- AAATGTAA — higher, 0.198
- GGCCTGAA — lower, -0.154
- GGAAACCA — lower, -0.134
- ACTTGTCG — lower, -0.117
- CAATCAAC — higher, 0.228
- CCGCTTGA — lower, -0.129
- ACCCGACC — lower, -0.0137
- GATCGACC — higher, 0.144
- TAGGGCAA — lower, -0.0815
- CAGTCATA — lower, -0.182
- ATAATGTA — lower, 0.0394
- CAGTGTTA — higher, 0.217
- AACAGGCG — lower, -0.0911
- GCGTGGCA — lower, -0.0481
- CATGGACA — lower, -0.099
- CAGCTATG — lower, -0.0983
- ATGTTTTC — higher, 0.268
- ATCAAATA — lower, 0.0718
- GATGTGCA — lower, -0.0123
- ATGGTTGC — lower, -0.135
- ATGACGTA — lower, 0.0816
- CAAGAACG — lower, 0.04
- CACCCAGA — lower, 0.0357
- CCTTGTTC — lower, -0.0936
- CATTGGCG — lower, -0.126
- ATAGTGAC — lower, 0.0959
- ATCCTAAT — lower, 0.119
- ATCATCTA — lower, 0.0234
- ACCCAGCA — lower, -0.197
- ATTCTAGG — lower, 0.0386
- AGGAACAG — lower, -0.146
- CTACAGAC — lower, -0.177
- GCAGCGAA — lower, 0.0425
- AGGGACGG — lower, -0.347
- GGAGACAC — lower, 0.00254
- CACTATAC — higher, 0.136
- AATGTGTA — lower, -0.00139
- TATCGCAA — higher, 0.22
- CAGAAGCC — lower, -0.093
- GAGTGAAC — lower, -0.0404
- CGCCGCGC — lower, 0.00596
- CGCTACAC — lower, -0.136
- ACTTAACA — lower, 0.0611
- ACAAAGCA — higher, 0.142
- AGCTCACG — lower, -0.0493
- ATCGTAAT — higher, 0.202
- CCATTCAA — lower, 0.0769
